Test results reported in publication PMC8967866.
Results are given in words; binding and its absence hold for the method and conditions named. Some entries that bind do so weakly or less than the wild type.

Sequences of proteins named here, by UniProt entry; tags and fusion partners are left off.
UniProt P48112: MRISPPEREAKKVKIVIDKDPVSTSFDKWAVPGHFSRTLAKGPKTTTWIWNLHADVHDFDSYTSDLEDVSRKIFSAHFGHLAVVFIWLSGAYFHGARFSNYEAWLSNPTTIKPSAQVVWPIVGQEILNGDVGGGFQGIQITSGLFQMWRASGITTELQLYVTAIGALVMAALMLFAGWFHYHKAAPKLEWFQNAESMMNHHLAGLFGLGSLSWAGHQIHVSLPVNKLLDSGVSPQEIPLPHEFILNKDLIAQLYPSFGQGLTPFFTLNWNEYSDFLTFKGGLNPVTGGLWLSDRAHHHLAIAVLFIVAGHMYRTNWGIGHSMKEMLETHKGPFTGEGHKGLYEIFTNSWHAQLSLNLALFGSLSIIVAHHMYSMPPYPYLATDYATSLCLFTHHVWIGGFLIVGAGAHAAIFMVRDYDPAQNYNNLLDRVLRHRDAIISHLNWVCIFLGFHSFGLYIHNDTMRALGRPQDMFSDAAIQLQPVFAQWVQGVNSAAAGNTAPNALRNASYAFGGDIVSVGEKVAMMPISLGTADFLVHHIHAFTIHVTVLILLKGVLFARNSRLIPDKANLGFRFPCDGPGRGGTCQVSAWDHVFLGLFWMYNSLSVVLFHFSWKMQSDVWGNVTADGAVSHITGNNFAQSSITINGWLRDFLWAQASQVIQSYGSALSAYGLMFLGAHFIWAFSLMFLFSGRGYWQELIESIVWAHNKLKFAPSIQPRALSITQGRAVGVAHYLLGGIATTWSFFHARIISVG

Molecular target: PsaA of Cyanophora paradoxa photosystem I (Cyanophora paradoxa (endogenous, strain NIES-547)) (UniProt P48112)
Assay: cryo-EM structure; PSI tetramer purified from Cyanophora thylakoids; GraFix (glutaraldehyde cross-linked) tetramer at 3.8 Å with C2 symmetry; unfixed wild-type tetramer at 4.0 Å; focused maps of monomer1 and monomer2 at 3.3 Å and 3.2 Å; 0.03% β-DDM, 50 mM Mes-NaOH pH 6.5; both purified

binding: binds
Substance: PsaA of Cyanophora paradoxa photosystem I (from UniProt P48112 1-752)
